The results in this text go back to publication PMC5622110.

Sequences of proteins named here, by UniProt entry; tags and fusion partners are left off. A change or cut given only in a name is not applied to a line headed by its entry. A line that says so, or that is headed by a name, gives the form on record, which may keep a tag or linker.
UniProt P13569: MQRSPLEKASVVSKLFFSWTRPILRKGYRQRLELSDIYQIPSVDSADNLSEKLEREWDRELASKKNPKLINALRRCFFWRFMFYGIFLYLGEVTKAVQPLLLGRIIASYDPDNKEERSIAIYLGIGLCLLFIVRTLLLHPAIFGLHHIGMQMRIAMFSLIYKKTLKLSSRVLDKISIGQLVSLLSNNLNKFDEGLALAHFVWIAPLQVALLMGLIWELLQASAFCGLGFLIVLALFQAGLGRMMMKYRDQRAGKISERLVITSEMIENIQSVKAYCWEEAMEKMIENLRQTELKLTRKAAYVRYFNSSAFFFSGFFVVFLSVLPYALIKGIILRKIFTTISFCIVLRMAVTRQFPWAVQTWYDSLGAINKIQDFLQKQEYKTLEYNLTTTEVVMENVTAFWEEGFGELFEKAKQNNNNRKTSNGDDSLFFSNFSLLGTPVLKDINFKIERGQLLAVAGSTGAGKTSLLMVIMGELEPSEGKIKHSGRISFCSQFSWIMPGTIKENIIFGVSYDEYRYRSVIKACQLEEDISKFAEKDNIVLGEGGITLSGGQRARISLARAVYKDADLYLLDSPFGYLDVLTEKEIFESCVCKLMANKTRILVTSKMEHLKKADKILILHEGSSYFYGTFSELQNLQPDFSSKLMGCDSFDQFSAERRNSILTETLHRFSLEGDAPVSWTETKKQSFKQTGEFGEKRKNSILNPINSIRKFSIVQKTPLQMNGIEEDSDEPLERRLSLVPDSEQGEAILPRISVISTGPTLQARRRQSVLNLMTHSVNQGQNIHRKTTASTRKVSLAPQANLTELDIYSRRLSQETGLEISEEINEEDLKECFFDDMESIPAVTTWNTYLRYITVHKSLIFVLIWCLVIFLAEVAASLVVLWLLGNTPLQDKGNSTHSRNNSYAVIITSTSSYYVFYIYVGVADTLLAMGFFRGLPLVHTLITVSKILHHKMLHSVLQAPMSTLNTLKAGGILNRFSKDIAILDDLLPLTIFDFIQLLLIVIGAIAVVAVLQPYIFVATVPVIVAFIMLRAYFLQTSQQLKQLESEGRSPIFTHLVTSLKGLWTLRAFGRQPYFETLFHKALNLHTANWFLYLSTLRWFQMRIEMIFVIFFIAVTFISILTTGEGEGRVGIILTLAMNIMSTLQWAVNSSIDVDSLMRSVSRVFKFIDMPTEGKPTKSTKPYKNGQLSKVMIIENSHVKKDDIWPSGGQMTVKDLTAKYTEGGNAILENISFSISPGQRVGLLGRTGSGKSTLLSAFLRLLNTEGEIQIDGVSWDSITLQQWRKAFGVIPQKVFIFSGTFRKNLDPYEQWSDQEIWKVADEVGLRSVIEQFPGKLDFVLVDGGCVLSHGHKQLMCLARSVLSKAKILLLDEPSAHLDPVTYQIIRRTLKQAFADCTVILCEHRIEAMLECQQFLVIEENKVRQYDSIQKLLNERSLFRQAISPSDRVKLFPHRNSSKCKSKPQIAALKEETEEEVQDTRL
F508del-CFTR (P13569, form named): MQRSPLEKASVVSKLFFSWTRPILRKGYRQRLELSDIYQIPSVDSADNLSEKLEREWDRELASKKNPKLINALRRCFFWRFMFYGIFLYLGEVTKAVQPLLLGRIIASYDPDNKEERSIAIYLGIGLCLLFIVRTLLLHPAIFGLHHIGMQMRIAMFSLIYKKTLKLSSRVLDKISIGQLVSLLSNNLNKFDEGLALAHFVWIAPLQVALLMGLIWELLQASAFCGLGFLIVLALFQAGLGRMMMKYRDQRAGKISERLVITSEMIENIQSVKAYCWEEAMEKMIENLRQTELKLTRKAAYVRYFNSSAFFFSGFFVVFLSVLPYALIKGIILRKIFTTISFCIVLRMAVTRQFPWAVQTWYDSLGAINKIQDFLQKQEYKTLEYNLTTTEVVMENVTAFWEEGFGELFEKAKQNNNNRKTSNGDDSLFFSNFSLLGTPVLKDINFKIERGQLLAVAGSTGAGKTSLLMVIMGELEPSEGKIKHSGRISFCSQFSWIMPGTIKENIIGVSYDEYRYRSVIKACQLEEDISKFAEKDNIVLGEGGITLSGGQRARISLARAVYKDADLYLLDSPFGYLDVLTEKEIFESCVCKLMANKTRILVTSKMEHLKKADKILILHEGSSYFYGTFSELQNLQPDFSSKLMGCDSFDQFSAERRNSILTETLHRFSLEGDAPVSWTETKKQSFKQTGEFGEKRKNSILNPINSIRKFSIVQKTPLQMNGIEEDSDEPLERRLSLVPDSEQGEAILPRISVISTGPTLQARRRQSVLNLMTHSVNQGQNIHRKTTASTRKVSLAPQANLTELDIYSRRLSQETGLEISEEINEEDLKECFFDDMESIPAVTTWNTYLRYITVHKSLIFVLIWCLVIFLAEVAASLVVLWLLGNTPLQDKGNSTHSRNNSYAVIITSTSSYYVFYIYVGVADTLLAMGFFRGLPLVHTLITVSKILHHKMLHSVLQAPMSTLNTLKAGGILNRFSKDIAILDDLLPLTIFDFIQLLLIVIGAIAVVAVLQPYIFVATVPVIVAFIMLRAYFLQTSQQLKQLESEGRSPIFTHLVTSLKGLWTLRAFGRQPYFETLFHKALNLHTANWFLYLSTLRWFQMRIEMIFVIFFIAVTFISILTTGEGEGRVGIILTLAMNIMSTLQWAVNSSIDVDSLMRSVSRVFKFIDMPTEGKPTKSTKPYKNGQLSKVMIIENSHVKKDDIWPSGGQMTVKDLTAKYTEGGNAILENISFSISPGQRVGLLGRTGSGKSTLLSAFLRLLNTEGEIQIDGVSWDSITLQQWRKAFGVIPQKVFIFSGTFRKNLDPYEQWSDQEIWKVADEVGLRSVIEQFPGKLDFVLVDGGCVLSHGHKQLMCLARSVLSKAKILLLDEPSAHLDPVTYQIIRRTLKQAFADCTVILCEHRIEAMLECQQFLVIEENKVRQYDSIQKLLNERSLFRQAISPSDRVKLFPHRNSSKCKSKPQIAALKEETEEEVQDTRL

One assay deals with T1, TMEM16F (UniProt Q4KMQ2).
T1 sequence: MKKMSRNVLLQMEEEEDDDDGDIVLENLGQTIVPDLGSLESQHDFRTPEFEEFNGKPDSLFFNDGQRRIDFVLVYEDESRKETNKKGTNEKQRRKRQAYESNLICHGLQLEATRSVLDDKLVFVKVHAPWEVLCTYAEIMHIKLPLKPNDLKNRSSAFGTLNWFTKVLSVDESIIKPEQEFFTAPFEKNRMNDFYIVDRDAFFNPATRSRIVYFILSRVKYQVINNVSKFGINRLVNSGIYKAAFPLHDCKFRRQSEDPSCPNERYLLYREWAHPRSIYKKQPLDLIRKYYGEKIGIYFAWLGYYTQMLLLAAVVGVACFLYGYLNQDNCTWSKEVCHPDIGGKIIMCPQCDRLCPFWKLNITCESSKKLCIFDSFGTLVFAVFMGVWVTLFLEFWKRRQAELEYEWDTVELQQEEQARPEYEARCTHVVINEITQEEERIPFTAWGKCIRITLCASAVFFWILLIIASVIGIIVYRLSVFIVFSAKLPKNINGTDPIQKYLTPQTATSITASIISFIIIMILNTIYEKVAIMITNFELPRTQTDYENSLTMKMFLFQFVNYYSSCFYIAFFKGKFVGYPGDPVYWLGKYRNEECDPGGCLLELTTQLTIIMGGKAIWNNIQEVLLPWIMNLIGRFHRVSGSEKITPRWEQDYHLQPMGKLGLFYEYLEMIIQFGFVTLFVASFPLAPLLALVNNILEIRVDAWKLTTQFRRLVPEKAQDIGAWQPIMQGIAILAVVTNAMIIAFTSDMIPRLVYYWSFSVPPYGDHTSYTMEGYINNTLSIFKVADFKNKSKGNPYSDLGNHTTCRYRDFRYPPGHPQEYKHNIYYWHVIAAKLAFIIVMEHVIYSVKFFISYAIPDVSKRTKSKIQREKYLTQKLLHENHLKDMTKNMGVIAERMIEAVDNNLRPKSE
The assay is described as follows: co-IP; cells lysed in 0.5% CHAPS lysis buffer with protease inhibitors; 500 µg protein with 6 µg antibody and protein G agarose, 4 °C overnight; three washes; Western blot; CFBE cells (wt and dF508) by text and methods, HEK293 overexpressing cells by the legend of Figure 6. Background: In western blotting, separated proteins are transferred to a membrane and probed.

The target in assay [1] is T2, TMEM16A (anoctamin 1, ANO1) (human (endogenous in CFBE)) (UniProt Q5XXA6).
T2 sequence: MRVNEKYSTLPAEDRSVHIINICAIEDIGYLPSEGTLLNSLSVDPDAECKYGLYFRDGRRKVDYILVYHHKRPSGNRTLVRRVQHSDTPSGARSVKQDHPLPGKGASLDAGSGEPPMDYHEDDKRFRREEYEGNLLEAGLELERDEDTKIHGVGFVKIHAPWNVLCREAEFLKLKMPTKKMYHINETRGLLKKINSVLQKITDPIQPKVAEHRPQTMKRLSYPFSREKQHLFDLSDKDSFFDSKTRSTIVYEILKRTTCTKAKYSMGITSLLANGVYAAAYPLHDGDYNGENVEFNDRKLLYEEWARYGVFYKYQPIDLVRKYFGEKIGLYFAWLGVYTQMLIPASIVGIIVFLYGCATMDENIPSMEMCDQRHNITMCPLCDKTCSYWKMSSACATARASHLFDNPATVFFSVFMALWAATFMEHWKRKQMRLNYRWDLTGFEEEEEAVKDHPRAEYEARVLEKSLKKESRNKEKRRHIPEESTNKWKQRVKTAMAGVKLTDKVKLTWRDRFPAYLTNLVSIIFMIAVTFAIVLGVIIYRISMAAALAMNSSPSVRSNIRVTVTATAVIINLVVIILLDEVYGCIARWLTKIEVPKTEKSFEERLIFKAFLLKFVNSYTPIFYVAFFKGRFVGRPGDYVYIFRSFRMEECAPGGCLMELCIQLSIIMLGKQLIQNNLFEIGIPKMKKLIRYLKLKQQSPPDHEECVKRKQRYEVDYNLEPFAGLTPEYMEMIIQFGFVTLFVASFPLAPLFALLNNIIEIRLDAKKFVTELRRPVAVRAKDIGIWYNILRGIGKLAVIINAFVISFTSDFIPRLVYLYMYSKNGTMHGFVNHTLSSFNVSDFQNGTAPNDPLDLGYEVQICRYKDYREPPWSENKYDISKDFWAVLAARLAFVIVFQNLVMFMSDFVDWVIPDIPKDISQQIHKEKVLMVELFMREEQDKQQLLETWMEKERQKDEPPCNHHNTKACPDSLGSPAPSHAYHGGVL
Described as above.

No constants are given. Whether binding was seen depends on the method and setting. Binding seen in cells or lysates may run through a third protein. Some results given as binding are weak or reduced against the parent protein; the word gives no strength.

For the substance “Cystic Fibrosis Transmembrane Conductance Regulator, wild type (from UniProt P13569 1-1480)”, the results for the binding result (with TMEM16F; in assay [1]) were “no binding” and “binds”, respectively.

With “F508del-CFTR (from UniProt P13569 1-1480)”, in assay [1], the binding entry is recorded as “binds”.
